Measured values reported in paper PMC6451745, “Development and dosimetry of ^203Pb/^212Pb-labelled PSMA ligands: bringing “the lead” into PSMA-targeted alpha therapy?” (European Journal of Nuclear Medicine and Molecular Imaging, 2019).

Experiments:
[1] = system: patients with castration-resistant metastasized prostate cancer; test: Dosimetry extrapolated from ^203Pb-CA012 to ^212Pb-CA012
[2] = parameters: method as in PMID 28408529; settings: projected treatment activity 6–8 MBq; cited from earlier work
[3] = RBE 5 for alpha, 1 for beta and gamma
[4] = projected treatment activity 100 MBq

| Structure (SMILES) | share of alpha radiation in equivalent dose [1, 3] | share of beta radiation in equivalent dose [1, 3] | share of gamma radiation in equivalent dose [1, 3] | Tumour/kidneys dose ratio [1, 4] | Tumour/red marrow dose ratio [1, 4] | Tumour/salivary glands dose ratio [1, 4] | Tissue equivalent dose, Tumour (mean) [2] | Tumour/kidneys dose ratio [2] | Tumour/red marrow dose ratio [2] | Tumour/salivary glands dose ratio [2] |
| --- | --- | --- | --- | --- | --- | --- | --- | --- | --- | --- |
| NC(=O)CN1CCN(CC(N)=O)CCN(CC(=O)NC[C@H]2CC[C@H](C(=O)N[C@@H](Cc3ccc4ccccc4c3)C(=O)NCCCC[C@H](NC(=O)N[C@@H](CCC(=O)O)C(=O)O)C(=O)O)CC2)CCN(CC(N)=O)CC1.[212Pb+2] [^212Pb-CA012] | 96.4% | 2.2% | 1.4% | 2.9 | 23.3 | 1.9 |  |  |  |  |
| O=C([O-])CC[C@H](NC(=O)N[C@@H](CCCCNC(=O)[C@H](Cc1ccc2ccccc2c1)NC(=O)C1CCC(CNC(=O)CN2CCN(CC(=O)[O-])CCN(CC(=O)[O-])CCN(CC(=O)[O-])CC2)CC1)C(=O)[O-])C(=O)[O-].[225Ac].[H+].[H+].[H+] (stereo partly shown) [^225Ac-PSMA-617] |  |  |  |  |  |  | 34 SvRBE5 | 8.1 | 113.3 | 2.5 |
